Measured values as given in PubChem BioAssay AID493014 (National Center for Advancing Translational Sciences (NCATS), 2011).
This is one part of the list. Further columns of the screen follow, without active or inactive calls. The list favours compounds with an active or inconclusive main result. The note in brackets gives the kind of curve behind each potency; many fits are weak.

Test: qHTS Assay to Find Inhibitors of Chronic Active B-Cell Receptor Signaling
Conditions: ABC-DLBCL IkBa-CBG/CBR reporter, luminescence ratio (green luciferase fused to IkBa over red control in TMD8 lymphoma cells), 4 h
Outline: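 TMD8 ABC-DLBCL cells carrying doxycycline-inducible green luciferase fused to IkappaBalpha plus unfused red luciferase were exposed to compounds (up to 46 uM) for 4 hrs at 37C. Activity came from the overlap-corrected green/red luminescence ratio.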

[1] = measured here: CBR red luminescence, cell number
[2] = measured here: IkBa-CBG green luminescence

Compound | AC50 [1] | AC50 [2]
O=C1C2=C(Nc3ccccc3SC2c2ccco2)c2ccccc21 (stereo not drawn) | 29.1 µM [falling, single point] | 
O=C(N/N=C/C(Cl)=C\c1ccccc1)c1cnccn1 | 32.6 µM [falling, single point] | 
c1ccc(CCN2CCN=C2Nc2ccccc2)cc1 | 6.31 µM [falling, single point] | 
COC(=O)c1ccc(C23CC4(C2)[C@H](CN(Cc2cccnc2)[C@@H]4c2ccccc2)C3c2ccc(Cl)nc2)cc1 (stereo partly drawn) | 15.8 µM [falling, single point] | 
CCc1ccc(N(CC(=O)NC)S(C)(=O)=O)cc1 | 0.092 µM [falling, full curve, poor fit] | 
COc1ccccc1CNc1nccn(-c2ccccc2)c1=O | 8.91 µM [falling, partial curve] | 
CCC(Oc1ccc(Br)cc1Cl)C(=O)Nc1nnc(C2CC2)s1 (stereo not drawn) | 20 µM [falling, single point] | 
Cc1ccc2[nH]cc(CCNC(=O)c3ccc4c(c3)OCO4)c2c1 | 8.91 µM [falling, partial curve, poor fit] | 
Cc1ccc2c(c1)c(-c1csc(N)n1)c(C)n2C | 8.91 µM [falling, partial curve, poor fit] | 
COc1ccc(NC(=S)NN2CCN(C)CC2)cc1OC | 2.91 µM [rising, partial curve] | 
Cc1ccc(Nc2nc3c(s2)CCC3)c(C)c1 | 2.59 µM [falling, full curve] | 
Cc1ccc(NC(=O)CN2CCCC2)c2c1CC(C)(C)O2 | 3.98 µM [falling, partial curve, poor fit] | 
Cc1cc(OCC(=O)N2CCc3ccccc3C2)c(C)cc1Br | 35.5 µM [falling, single point] | 
Cc1ccc(C2CC(=O)NC3=C2C(=O)CCC3)cc1Br (stereo not drawn) | 5.01 µM [falling, partial curve, poor fit] | 
O=[N+]([O-])c1ccc(CNCc2cc(Cl)ccc2O)cc1 | 29.1 µM [falling, single point] | 
Cc1nc(NCCN2CCOCC2)c2nnn(Cc3ccccc3Cl)c2n1 | 32.6 µM [falling, single point] | 
CC(C)NC(=O)c1ccc(COc2ccc(C(C)(C)C)cc2)o1 | 11.2 µM [falling, partial curve, poor fit] | 
CCOc1ccccc1NC(=O)c1c(NCc2sccc2C)sc2c1CCC(C)C2 (stereo not drawn) | 11.2 µM [falling, partial curve, poor fit] | 
CCOc1ccc2nc(N/C(N)=N/S(C)(=O)=O)nc(C)c2c1 | 2.24 µM [rising, partial curve] | 
O=C(NCc1ccccc1)c1csc2c1CCCCC2 | 13 µM [rising, partial curve] | 
O=C(Nc1ccc(Cl)cc1)N1CCC(c2ccccc2)C1 (stereo not drawn) | 10 µM [falling, partial curve, poor fit] | 
O=C(Nc1ccc(Br)cc1)c1cccc(N2C(=O)C3C4C=CC(C4)C3C2=O)c1 (stereo not drawn) | 35.5 µM [falling, single point] | 

Compound | AC50 [1] | AC50 [2]
CC1Cc2ccccc2N1C(=O)CSc1ncc(-c2ccc(F)cc2)n1C (stereo not drawn) | 8.2 µM [falling, partial curve] | 
c1ccc2c(Nc3ccc4c(c3)OCCO4)c3c(nc2c1)CCCC3 | 35.5 µM [falling, single point] | 
O=C(CN1C(=O)C(=O)N(C2CCCC2)C1=O)NCCc1ccc(Cl)cc1Cl | 23.1 µM [rising, single point] | 
Cc1ccc(-c2noc(CSc3nnc(Cc4cccs4)n3-c3ccccc3)n2)cc1 | 25.9 µM [falling, single point] | 
Cc1cc2c(=O)n(C)c(SCC(=O)c3cc4ccccc4o3)nc2s1 | 0.103 µM [rising, full curve, poor fit] | 
Cc1[nH]c2ccccc2c1/C=N/NC(=O)c1cccc(F)c1 | 35.5 µM [falling, single point] | 
CCCC[C@@H]1C=C(C(=O)O)[C@H](c2ccc(Cl)c(Cl)c2)N1S(=O)(=O)c1ccc(C)cc1 | 32.6 µM [falling, single point] | 
COc1ccc(/C=N/NC(=O)c2ccc[nH]2)cc1 | 11.2 µM [falling, partial curve, poor fit] | 
O=c1c2ccccc2nc(COc2ccccc2)n1/N=C/c1ccco1 | 15.8 µM [falling, single point] | 
CSc1nc(-c2ccc(Cl)cc2Cl)[nH]c(=O)c1C#N | 2.31 µM [rising, full curve, poor fit] | 
c1ccc2nc(-c3ccncc3)ccc2c1 | 35.5 µM [rising, single point] | 
O=C(CSc1ccccc1C(=O)O)Nc1cccc(C(=O)O)c1 | 15.8 µM [falling, partial curve] | 
CCn1c(C)cc(/C=C2/NC(=O)N(Cc3ccccc3F)C2=O)c1C | 29.1 µM [falling, single point] | 
CC(C(=O)Nc1cccc([N+](=O)[O-])c1)[n+]1ccccc1 (stereo not drawn) | 35.5 µM [falling, single point] | 
COc1cc(C2=Nc3c(c(C)nn3-c3ccccc3)P(=O)(N3CCOCC3)O2)cc(OC)c1OC (stereo not drawn) | 9.2 µM [falling, single point] | 29.1 µM [rising, partial curve, poor fit]
O=C(Nc1cccc(Cl)c1)c1ccc(F)c(S(=O)(=O)N2CCN(c3ccccn3)CC2)c1 | 9.2 µM [falling, partial curve] | 
O=C(Nc1ccc(NC(=O)c2ccccc2Cl)nc1)c1ccncc1 | 7.94 µM [falling, partial curve, poor fit] | 
Cc1cc(Br)cc2c1NC(=O)C2(O)CC(=O)c1ccco1 (stereo not drawn) |  | 22.4 µM [falling, single point]
CCOc1ccc(CC(=O)NNC(=S)NC)cc1Br | 15.8 µM [rising, single point] | 
CCOc1ccc(OCCC(=O)N2CCN(S(=O)(=O)c3ccc(F)cc3)CC2)cc1 | 0.013 µM [rising, full curve, poor fit] | 
O=Cc1ccccc1OCc1ccc2c(c1)OCO2 | 3.55 µM [rising, single point] | 10 µM [falling, partial curve]
C/C(=N/Nc1ccc(C)cc1)C1(C)N(O)C(C)(C)C(c2ccco2)=[N+]1[O-] (stereo not drawn) | 7.08 µM [rising, partial curve, poor fit] | 

Another view of part of the listing above:
Compound	AC50 [1]	AC50 [2]
O=C(CN1C(=O)C(=O)N(C2CCCC2)C1=O)NCCc1ccc(Cl)cc1Cl	23.1 µM [rising, single point]	
Cc1cc2c(=O)n(C)c(SCC(=O)c3cc4ccccc4o3)nc2s1	0.103 µM [rising, full curve, poor fit]	
c1ccc2nc(-c3ccncc3)ccc2c1	35.5 µM [rising, single point]	
O=C(CSc1ccccc1C(=O)O)Nc1cccc(C(=O)O)c1	15.8 µM [falling, partial curve]	

Additional results

Compound | AC50 [1] | AC50 [2]
O=C(Cc1ccc(F)cc1)NCCc1ccc(F)cc1 | 2.31 µM [falling, single point] | 
COc1cc(C(=O)N/N=C(\C)c2ccc(NC(=O)Cc3ccccc3)cc2)ccc1O | 11.2 µM [falling, partial curve] | 
O=C(CN1C(=O)C2C3C=CC(C3)C2C1=O)NCCC1=CCCCC1 (stereo not drawn) | 11.6 µM [rising, partial curve, poor fit] | 
Cc1cccc(C(=O)Nc2ccc(C(=O)N/N=C/c3cccc(C)n3)cc2)c1 | 14.1 µM [falling, partial curve, poor fit] | 
Cc1nc2cc(-c3ccccc3)sc2c(=O)n1N | 7.08 µM [falling, partial curve] | 
COc1cc(C2C(C(=O)c3ccc(C)o3)=C(O)C(=O)N2c2cc(C)on2)cc(Br)c1O (stereo not drawn) | 3.26 µM [falling, single point] | 
O=C1c2cccc3cccc(c23)C(=O)N1/N=C/c1ccc(O)cc1O | 14.6 µM [falling, partial curve, poor fit] | 
O=S(=O)(c1ccc2c(c1)OCCO2)N1CCC(n2cnc3cc(F)ccc32)CC1 | 3.16 µM [falling, single point] | 
Cc1ccsc1/C=N/Nc1ncc(Cl)cc1Cl | 6.51 µM [falling, partial curve] | 
CCOC(=O)CC(=O)CSc1nc2ccccc2c(=O)n1CCc1ccc(S(N)(=O)=O)cc1 | 35.5 µM [falling, single point] | 
COc1cccc(C(=O)O/N=C(\N)c2ccncc2)c1OC | 16.4 µM [falling, single point] | 29.1 µM [falling, partial curve, poor fit]
NNC(=O)c1snnc1-c1ccccc1 | 3.16 µM [rising, single point] | 
CC(Sc1nnc(C2CC2)n1C1CC1)C(=O)NC1(C#N)CCCCC1 (stereo not drawn) | 16.4 µM [rising, single point] | 
C#CC1(NC(=O)NS(=O)(=O)c2ccc(C)cc2)CCCCC1 | 11.2 µM [rising, partial curve] | 
O=C(C[n+]1ccc(/C=N/O)cc1)N(Cc1ccccc1)Cc1ccccc1 | 6.31 µM [falling, partial curve, poor fit] | 
CC(=O)NC(Cc1cccc(C)c1)C(=O)NC1CCN(C(=O)NCc2ccccc2)CC1 (stereo not drawn) | 12.6 µM [falling, partial curve, poor fit] | 
Cn1c(N)c(N=Nc2ccc(S(N)(=O)=O)cc2)c(=O)n(C)c1=O | 0.501 µM [falling, full curve, poor fit] | 
O=C1NC(=Nc2ccccc2)S/C1=C/c1cccs1 | 3.55 µM [falling, full curve, poor fit] | 
CC(C)(C)C1CCC2(CC1)C(C#N)=C(SCC(=O)Nc1ccccc1)NC(=O)C2C#N (stereo not drawn) | 18.4 µM [falling, partial curve, poor fit] | 11.6 µM [rising, partial curve, poor fit]
Cc1ccc(-c2ccc(/C=C/C(=O)c3ccccc3)o2)cc1 | 1.3 µM [rising, full curve, poor fit] | 
